From paper PMC9731445
No constants are given. Whether binding was seen depends on the method and setting. Some binding calls cover weakened binding; strength is not graded here.

Protein sequences, listed by entry. Tags and fused reporters are not part of them. Residues count along the entry.
UniProt Q07011, residues 24-255: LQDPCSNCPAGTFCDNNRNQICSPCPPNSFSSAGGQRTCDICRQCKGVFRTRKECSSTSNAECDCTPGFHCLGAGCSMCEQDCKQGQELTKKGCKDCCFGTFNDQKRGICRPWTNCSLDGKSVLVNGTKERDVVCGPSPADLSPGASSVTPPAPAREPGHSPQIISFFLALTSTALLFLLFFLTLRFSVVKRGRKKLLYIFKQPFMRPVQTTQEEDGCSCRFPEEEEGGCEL
UniProt P41273, residues 50-254: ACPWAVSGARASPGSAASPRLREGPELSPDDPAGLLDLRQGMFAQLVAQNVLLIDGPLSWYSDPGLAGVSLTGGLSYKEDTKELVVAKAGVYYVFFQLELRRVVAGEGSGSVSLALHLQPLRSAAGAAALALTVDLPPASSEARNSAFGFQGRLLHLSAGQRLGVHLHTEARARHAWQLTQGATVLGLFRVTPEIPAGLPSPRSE

Molecular target: human 4-1BB expressed on CHO-K1 cells (CHO-K1/h4-1BB) (human) (UniProt Q07011)
Experiment: flow cytometry on cells; indirect flow cytometry; 2.5 x10^5 stable CHO-K1 cells expressing the human receptor treated with 0, 0.2, 1, 5, 10 μg/mL purified Fc fusion protein, 45 min at 4°C; detected with FITC mouse anti-human IgG; only the binder purified

In the case of “4-1BBL extracellular domain (ECD)-Fc fusion protein (from UniProt P41273 50-254)”, the binding is reported as “binds”.
